This passage reports binding results from article PMC4364779, “IMD-4690, a Novel Specific Inhibitor for Plasminogen Activator Inhibitor-1, Reduces Allergic Airway Remodeling in a Mouse Model of Chronic Asthma via Regulating Angiogenesis and Remodeling-Related Mediators” (PLoS ONE, 2015).

Protein sequences, listed by entry. Tags and fused reporters are not part of them. Residues count along the entry.
UniProt P05121, residues 24-402: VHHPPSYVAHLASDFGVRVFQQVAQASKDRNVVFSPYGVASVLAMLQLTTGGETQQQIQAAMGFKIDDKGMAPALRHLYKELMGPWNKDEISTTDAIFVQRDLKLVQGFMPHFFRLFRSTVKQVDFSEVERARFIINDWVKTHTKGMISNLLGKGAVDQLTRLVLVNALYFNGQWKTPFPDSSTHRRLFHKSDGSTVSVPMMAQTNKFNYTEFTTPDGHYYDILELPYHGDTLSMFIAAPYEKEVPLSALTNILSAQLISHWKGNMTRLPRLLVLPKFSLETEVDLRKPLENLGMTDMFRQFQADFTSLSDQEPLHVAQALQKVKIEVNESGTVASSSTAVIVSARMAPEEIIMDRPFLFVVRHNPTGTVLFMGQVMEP
UniProt P00750, residues 36-562: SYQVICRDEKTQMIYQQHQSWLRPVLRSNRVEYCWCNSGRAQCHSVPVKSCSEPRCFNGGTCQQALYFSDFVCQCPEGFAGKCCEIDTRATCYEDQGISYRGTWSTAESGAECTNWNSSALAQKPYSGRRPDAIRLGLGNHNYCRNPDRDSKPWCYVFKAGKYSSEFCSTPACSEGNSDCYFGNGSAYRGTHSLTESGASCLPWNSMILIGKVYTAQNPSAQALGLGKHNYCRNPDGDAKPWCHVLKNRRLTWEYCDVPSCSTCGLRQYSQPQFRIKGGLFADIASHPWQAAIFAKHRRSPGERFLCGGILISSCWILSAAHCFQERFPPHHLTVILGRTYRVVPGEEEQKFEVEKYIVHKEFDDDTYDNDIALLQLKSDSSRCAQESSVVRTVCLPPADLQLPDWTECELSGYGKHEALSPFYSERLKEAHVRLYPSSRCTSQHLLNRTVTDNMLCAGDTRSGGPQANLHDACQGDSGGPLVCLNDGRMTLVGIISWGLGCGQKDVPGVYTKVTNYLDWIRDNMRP

This test has as its target plasminogen activator inhibitor-1 (human) (UniProt P05121). The test is described as follows: SDS-PAGE of the tPA/PAI-1 complex with silver staining; recombinant PAI-1 mixed with IMD-4690 in PBS at 37°C for 5 min, then tPA added, 37°C for 5 min; 10% SDS-PAGE, silver staining; bands of the tPA/PAI-1 complex quantified by densitometry; both purified.

No constants are given. Whether binding was seen depends on the method and setting. Some results given as binding are weak or reduced against the parent protein; the word gives no strength.

Regarding “tissue-type plasminogen activator (from UniProt P00750 36-562) (enzyme)”, the binding entry is “binds”.
